The reference is the same well before dosing, and untreated signal decays as well.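 Labels refer to human fibroblasts, largely primary: uterine (C12385, HUF), lung (H6013), bone (Hs27A), adrenal (HADF), skin (WS1), plus mammary HMF and breast cancer-associated Hs343T. Cancer lines are basal-like or mesenchymal-like triple-negative breast cancer. The paper counts as hits responses shifting over 3x the replicate standard deviation. The tissue of the other fibroblasts is not given here.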
System: BT20
Test: relative JC-1 red fluorescence (viability) vs pre-drug, coculture with fibroblast (fraction); higher = more viable cancer cells
Conditions: 100 µM
Method: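 JC-1 labelled TNBC cells cocultured 1:1 (1,500 cells each) with CellTrace Violet stained primary or stromal fibroblasts in 384-well plates in FluoroBrite medium, treated with one of 42 anticancer drugs at 0.1, 1, 10 or 100 uM. JC-1 red fluorescence (mitochondrial integrity in cancer cells only) was read by plate reader every 8 h for 72 h. Values are normalised to each well's pre-drug value. The stock of one drug was tenfold lower, so its dose labels may be too high.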

CO[C@H]1C[C@@H]2CC[C@@H](C)[C@@](O)(O2)C(=O)C(=O)N2CCCC[C@H]2C(=O)O[C@H]([C@H](C)C[C@@H]2CC[C@@H](O)[C@H](OC)C2)CC(=O)[C@H](C)/C=C(\C)[C@@H](O)[C@@H](OC)C(=O)[C@H](C)C[C@H](C)/C=C/C=C/C=C/1C [Rapamycin]
relative JC-1 red fluorescence
Conditions | 8 h | 16 h | 24 h | 32 h | 40 h | 48 h | 56 h | 64 h | 72 h
coculture fibroblast: C12385 | 0.831 | 0.852 | 0.836 | 0.907 | 0.892 | 0.829 | 0.742 | 0.659 | 0.564
coculture fibroblast: H6013 | 0.958 | 0.678 | 0.561 | 0.453 | 0.362 | 0.333 | 0.374 | 0.406 | 0.426
coculture fibroblast: H6019 | 0.924 | 0.812 | 0.856 | 0.72 | 0.752 | 0.68 | 0.768 | 0.736 | 0.675
coculture fibroblast: H6076 | 0.96 | 0.749 | 0.635 | 0.599 | 0.559 | 0.489 | 0.486 | 0.483 | 0.476
coculture fibroblast: H6231 | 0.808 | 0.876 | 0.854 | 0.905 | 0.901 | 0.857 | 0.738 | 0.638 | 0.551
coculture fibroblast: HADF | 0.801 | 0.912 | 0.765 | 0.638 | 0.545 | 0.502 | 0.549 | 0.611 | 0.635
coculture fibroblast: HCFa | 0.934 | 0.7577 | 0.723 | 0.627 | 0.492 | 0.389 | 0.406 | 0.428 | 0.463
coculture fibroblast: HCPF | 0.869 | 0.766 | 0.751 | 0.682 | 0.716 | 0.616 | 0.599 | 0.6 | 0.564
coculture fibroblast: HHSteC | 0.892 | 0.703 | 0.579 | 0.444 | 0.34 | 0.295 | 0.321 | 0.35 | 0.378
coculture fibroblast: HMF | 0.852 | 0.765 | 0.615 | 0.551 | 0.506 | 0.432 | 0.422 | 0.379 | 0.325
coculture fibroblast: HPFa | 0.954 | 0.906 | 0.762 | 0.646 | 0.57 | 0.484 | 0.517 | 0.562 | 0.598
coculture fibroblast: HUF | 0.793 | 0.576 | 0.507 | 0.386 | 0.329 | 0.341 | 0.375 | 0.39 | 0.399
coculture fibroblast: Hs5 | 0.948 | 0.706 | 0.618 | 0.522 | 0.445 | 0.38 | 0.344 | 0.336 | 0.362
coculture fibroblast: Hs27A | 0.784 | 0.851 | 0.933 | 0.89 | 0.828 | 0.684 | 0.681 | 0.753 | 0.781
coculture fibroblast: Hs343T | 0.943 | 0.698 | 0.499 | 0.4 | 0.336 | 0.259 | 0.239 | 0.22 | 0.241
coculture fibroblast: WS1 | 0.924 | 0.843 | 0.815 | 0.755 | 0.7124 | 0.837 | 0.712 | 0.627 | 0.519
